Data reported in the supplement of paper PMC10060354, “Discovery of a small molecule ligand of FRS2 that inhibits invasion and tumor growth” (Cellular Oncology, 2022).

Chains of the proteins cited; added tags and fusions are not shown. Lines headed by an entry give the natural chain unless they say otherwise; changes in a name come on top.
UniProt Q8NHM5: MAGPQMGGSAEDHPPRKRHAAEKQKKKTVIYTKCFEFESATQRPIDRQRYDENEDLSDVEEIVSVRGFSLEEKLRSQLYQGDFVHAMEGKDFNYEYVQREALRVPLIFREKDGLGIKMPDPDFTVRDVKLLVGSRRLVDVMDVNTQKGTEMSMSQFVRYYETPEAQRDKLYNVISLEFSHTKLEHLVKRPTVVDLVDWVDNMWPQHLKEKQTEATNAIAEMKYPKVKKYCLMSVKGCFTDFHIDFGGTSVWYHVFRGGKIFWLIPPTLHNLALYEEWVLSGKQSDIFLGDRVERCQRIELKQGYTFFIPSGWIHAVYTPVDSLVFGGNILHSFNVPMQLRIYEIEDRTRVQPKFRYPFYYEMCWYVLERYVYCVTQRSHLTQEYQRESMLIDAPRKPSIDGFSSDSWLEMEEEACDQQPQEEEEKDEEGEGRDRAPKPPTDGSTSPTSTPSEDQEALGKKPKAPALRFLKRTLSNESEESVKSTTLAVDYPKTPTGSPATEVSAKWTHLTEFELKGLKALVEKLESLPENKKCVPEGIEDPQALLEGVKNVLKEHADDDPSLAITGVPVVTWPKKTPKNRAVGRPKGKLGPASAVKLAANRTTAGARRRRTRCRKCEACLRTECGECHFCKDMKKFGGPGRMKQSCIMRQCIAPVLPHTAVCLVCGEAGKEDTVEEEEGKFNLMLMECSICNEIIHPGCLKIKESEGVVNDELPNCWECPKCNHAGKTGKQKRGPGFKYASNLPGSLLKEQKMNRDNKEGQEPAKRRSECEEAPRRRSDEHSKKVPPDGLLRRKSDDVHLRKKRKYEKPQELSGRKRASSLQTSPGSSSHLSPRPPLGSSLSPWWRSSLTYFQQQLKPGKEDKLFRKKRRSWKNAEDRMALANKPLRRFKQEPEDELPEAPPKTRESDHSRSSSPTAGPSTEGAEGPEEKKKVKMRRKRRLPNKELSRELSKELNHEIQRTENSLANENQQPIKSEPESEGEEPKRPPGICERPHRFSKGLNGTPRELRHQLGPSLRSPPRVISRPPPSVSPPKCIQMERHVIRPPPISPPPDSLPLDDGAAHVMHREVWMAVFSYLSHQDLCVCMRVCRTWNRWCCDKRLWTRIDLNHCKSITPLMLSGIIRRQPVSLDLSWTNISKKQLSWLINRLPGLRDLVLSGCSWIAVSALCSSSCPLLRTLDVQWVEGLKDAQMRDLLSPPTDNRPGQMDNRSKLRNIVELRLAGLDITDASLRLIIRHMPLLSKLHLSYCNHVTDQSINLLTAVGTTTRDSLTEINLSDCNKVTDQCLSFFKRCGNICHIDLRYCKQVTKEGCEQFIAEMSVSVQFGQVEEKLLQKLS
UniProt Q9NU23: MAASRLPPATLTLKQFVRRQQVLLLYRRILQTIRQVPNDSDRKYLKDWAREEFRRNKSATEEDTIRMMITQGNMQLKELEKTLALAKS
UniProt O75356: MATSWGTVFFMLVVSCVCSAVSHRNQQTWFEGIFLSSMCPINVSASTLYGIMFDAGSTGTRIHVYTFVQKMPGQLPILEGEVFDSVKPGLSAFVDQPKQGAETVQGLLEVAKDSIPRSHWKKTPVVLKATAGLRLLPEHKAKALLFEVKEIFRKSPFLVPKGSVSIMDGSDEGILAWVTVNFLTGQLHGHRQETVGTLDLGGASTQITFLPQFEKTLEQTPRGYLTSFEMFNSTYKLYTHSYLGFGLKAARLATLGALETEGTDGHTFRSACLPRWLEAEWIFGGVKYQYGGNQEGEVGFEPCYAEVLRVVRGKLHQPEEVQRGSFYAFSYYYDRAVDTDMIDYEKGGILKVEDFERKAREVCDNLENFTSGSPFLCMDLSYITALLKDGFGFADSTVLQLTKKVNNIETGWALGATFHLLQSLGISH
UniProt Q9Y6H1: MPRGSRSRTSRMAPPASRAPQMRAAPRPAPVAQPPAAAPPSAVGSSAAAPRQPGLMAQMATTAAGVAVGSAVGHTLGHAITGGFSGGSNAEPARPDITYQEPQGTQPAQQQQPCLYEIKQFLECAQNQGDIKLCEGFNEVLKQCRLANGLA
UniProt Q9NRX4: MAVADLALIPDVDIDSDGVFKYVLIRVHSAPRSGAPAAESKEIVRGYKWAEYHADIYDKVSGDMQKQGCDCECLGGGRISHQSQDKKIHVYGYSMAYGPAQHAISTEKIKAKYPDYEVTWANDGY
UniProt P20155: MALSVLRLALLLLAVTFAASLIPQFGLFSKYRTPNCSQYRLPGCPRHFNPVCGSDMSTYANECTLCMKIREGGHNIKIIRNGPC
UniProt O14867: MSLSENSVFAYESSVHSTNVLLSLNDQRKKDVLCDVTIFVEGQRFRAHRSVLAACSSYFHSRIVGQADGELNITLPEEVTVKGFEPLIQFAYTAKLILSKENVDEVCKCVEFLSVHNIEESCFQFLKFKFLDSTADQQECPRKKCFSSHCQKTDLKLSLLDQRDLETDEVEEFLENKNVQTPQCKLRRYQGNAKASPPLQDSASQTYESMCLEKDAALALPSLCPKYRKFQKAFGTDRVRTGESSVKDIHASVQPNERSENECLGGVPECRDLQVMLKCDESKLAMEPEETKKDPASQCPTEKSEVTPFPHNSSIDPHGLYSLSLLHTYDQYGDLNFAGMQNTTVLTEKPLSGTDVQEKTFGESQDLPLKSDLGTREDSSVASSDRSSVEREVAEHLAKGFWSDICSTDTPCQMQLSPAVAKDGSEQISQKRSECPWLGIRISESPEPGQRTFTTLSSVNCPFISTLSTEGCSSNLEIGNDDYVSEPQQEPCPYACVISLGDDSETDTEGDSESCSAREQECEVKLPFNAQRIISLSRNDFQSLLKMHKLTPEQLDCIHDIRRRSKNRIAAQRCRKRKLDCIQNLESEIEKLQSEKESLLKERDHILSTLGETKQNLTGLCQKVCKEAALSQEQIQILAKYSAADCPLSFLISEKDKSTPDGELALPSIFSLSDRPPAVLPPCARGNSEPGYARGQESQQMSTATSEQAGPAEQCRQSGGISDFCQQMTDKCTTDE
UniProt Q9NPL8: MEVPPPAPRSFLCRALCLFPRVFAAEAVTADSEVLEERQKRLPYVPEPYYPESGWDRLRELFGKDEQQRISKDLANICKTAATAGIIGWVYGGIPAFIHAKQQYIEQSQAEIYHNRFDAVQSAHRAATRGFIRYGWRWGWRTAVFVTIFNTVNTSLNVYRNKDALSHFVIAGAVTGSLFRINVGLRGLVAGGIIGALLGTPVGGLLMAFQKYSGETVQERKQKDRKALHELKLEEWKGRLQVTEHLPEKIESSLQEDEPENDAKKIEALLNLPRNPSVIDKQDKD
UniProt O75970: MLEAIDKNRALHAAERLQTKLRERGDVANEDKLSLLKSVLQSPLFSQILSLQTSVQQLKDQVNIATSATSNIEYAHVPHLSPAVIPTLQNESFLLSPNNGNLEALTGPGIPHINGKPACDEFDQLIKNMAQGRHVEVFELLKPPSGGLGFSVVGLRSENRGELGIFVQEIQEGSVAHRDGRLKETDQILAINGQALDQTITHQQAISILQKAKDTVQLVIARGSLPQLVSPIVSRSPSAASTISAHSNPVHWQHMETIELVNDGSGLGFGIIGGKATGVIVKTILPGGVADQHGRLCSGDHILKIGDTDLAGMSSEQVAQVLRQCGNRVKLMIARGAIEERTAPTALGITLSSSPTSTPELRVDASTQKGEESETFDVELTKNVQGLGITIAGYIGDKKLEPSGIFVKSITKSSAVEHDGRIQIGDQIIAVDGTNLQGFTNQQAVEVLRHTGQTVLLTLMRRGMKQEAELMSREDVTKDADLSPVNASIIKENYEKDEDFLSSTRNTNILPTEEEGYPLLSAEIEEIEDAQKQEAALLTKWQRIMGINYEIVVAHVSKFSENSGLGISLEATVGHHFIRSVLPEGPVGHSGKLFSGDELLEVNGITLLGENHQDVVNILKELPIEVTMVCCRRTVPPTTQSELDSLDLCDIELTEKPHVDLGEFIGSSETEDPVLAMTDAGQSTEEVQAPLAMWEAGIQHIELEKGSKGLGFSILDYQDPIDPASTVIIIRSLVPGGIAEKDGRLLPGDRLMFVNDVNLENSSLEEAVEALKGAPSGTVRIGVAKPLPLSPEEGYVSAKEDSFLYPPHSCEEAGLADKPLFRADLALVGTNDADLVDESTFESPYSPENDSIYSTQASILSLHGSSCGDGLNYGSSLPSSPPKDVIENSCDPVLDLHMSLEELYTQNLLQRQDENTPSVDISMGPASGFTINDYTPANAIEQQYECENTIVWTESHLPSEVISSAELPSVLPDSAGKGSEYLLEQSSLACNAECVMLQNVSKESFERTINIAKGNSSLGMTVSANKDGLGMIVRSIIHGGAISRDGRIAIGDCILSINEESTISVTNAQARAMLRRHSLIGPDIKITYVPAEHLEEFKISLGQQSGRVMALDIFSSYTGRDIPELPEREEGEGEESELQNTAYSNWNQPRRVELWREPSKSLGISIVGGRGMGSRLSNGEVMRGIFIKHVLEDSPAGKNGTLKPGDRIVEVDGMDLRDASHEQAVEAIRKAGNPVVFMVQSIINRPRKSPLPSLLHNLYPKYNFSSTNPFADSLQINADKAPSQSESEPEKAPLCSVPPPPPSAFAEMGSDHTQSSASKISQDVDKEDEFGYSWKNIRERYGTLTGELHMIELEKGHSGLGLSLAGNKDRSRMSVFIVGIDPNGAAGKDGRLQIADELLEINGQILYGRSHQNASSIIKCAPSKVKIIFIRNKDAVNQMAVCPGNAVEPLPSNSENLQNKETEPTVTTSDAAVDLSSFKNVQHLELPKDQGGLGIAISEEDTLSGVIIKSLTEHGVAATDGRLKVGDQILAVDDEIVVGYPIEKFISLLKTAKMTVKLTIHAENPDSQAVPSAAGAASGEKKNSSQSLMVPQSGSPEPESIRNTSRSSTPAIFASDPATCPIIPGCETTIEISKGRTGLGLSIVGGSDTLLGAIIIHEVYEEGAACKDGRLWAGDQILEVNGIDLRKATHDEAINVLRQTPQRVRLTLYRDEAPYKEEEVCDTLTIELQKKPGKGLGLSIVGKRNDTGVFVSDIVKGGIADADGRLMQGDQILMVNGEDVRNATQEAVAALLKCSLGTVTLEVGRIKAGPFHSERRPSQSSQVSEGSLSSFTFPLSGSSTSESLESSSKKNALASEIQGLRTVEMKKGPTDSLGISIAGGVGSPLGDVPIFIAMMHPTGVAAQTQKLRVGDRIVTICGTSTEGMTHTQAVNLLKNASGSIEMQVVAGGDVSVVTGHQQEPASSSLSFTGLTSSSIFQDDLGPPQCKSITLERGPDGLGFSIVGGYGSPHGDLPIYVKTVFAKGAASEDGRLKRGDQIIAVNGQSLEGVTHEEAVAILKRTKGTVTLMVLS
UniProt Q8WVM7: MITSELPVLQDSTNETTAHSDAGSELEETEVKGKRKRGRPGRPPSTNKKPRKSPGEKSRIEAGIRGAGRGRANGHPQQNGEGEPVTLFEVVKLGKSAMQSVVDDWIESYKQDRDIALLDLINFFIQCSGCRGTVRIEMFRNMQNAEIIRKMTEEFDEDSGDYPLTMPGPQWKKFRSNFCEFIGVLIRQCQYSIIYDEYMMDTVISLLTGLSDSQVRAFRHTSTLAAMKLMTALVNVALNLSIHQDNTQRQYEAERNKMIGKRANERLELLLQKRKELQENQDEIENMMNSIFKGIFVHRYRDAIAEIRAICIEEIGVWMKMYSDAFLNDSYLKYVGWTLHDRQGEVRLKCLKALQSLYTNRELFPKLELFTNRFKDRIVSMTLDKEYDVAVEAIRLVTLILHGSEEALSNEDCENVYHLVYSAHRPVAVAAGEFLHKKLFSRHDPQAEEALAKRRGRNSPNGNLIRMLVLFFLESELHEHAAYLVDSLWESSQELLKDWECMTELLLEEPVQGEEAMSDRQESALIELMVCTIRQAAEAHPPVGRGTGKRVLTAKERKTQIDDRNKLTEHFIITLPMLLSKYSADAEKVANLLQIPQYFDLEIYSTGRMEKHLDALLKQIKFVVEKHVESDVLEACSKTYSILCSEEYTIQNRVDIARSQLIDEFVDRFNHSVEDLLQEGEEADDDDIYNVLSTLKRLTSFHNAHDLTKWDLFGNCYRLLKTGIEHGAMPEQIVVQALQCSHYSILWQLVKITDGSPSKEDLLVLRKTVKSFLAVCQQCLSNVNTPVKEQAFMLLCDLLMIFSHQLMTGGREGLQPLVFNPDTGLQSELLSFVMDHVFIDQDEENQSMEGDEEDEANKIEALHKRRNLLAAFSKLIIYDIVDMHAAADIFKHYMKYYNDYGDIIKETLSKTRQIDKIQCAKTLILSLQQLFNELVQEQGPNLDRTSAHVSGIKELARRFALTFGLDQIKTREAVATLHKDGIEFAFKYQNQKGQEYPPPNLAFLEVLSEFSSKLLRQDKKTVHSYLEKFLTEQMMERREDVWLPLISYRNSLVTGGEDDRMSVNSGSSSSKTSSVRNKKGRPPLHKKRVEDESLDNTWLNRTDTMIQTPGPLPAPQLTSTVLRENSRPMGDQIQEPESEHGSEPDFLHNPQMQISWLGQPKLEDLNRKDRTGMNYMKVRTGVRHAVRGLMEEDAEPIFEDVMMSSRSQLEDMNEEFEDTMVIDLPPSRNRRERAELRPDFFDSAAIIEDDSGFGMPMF

Compound: [O-][N+](C(C1=C(C(O)=C2)NC(C(C=C3)=CC=C3Cl)C4C1C=CC4)=C2Cl)=O
Assay: melting temperature shift (compound 7 minus DMSO); higher = compound stabilises the protein
Conditions: 10 µM
Experimental: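 Thermal proteome profiling (TMT mass spectrometry) in intact DAOY medulloblastoma cells or DAOY lysates treated with 10 µM compound 7 or DMSO, heated at 10 temperatures from 40.5 to 73.8 °C for 3 min. Melting curves were fitted with the Bioconductor TPP package, and the melting point difference between compound and vehicle is reported per protein (single curve per condition).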

[1] = system: DAOY cell lysate, treatment time: 20 min, 4 °C
[2] = system: intact DAOY cells, treatment time: 90 min, 37 °C

Target | melting temperature shift [1] [°C] | melting temperature shift [2] [°C]
RBBP7 (UniProt Q16576) | -0.336 | 0.669
TMED3 (UniProt Q9Y3Q3) |  | -0.124
EIF3B (UniProt P55884) | -0.259 | 0.0377
NECTIN2 (UniProt Q92692) | 0.321 | -0.0321
MRPS7 (UniProt Q9Y2R9) | -0.37 | -1.84
GABPB1 (UniProt Q06547) | -1.06 | -0.687
VTI1A (UniProt Q96AJ9) | -2.71 | 
VPS37A (UniProt Q8NEZ2) | -1.12 | 0.425
SPIN1 (UniProt Q9Y657) | 0.745 | 0.424
MTO1 (UniProt Q9Y2Z2) | 3.17 | 
UniProt Q8NHM5 | 0.674 | 
UniProt B2RTY4 |  | 1.09
IDH3B (UniProt O43837) | -0.281 | -0.704
PITHD1 (UniProt Q9GZP4) | -2.46 | -1.5
STX18 (UniProt Q9P2W9) | 1.08 | -1.1
PIEZO1 (UniProt Q92508) | -0.0731 | 
UniProt Q8TDZ2 | 0.545 | -0.357
NPEPPS (UniProt P55786) | -0.508 | -0.0331
RFC3 (UniProt P40938) | -0.566 | -1.25
COPZ1 (UniProt P61923) | -0.909 | 0.602
CWF19L1 (UniProt Q69YN2) | -0.094 | -0.0473
UniProt P39210 | 0.714 | 3.07
RPS20 (UniProt P60866) | 1.09 | -0.492

Target | melting temperature shift [1] [°C] | melting temperature shift [2] [°C]
MANBAL (UniProt Q9NQG1) | -0.312 | 
POLR3G (UniProt O15318) |  | -0.0808
CCDC6 (UniProt Q16204) | -1.61 | 0.196
PPID (UniProt Q08752) | -0.357 | -0.287
UniProt O15479 | 0.926 | -0.0436
UniProt Q9NU23 | -0.859 | -0.548
ARIH2 (UniProt O95376) | -0.832 | 0.512
ADD3 (UniProt Q9UEY8) | -0.827 | 0.533
WDR81 (UniProt Q562E7) | -0.185 | 
AQR (UniProt O60306) | -0.223 | 1.34
UniProt O75356 | 0.621 | 
CHCHD2 (UniProt Q9Y6H1) | 0.477 | 0.0827
PTPN9 (UniProt P43378) | -2.16 | -0.841
UniProt Q9UJ98 |  | -2.23
CCT6A (UniProt P40227) | -0.441 | -0.0971
SMARCA2 (UniProt P51531) | -0.716 | -0.528
UniProt Q63ZY6 |  | -0.143
UniProt Q9UMR5 | -1.64 | 
UniProt Q6BAA4 |  | -1.71
KANK1 (UniProt Q14678) | -0.721 | 0.585
TAF7 (UniProt Q15545) | -1.84 | 0.22
PISD (UniProt Q9UG56) | 1.94 | 
CINP (UniProt Q9BW66) | -2.74 | 0.873

Target | melting temperature shift [1] [°C] | melting temperature shift [2] [°C]
UniProt Q8N130 | 2.12 | 
GNL3 (UniProt Q9BVP2) | 0.331 | 4.8
REPS2 (UniProt Q8NFH8) |  | 1.6
UniProt Q9Y6E0 | -0.502 | 0.38
UniProt Q9H977 | -1.22 | 0.167
UniProt O75326 | 0.549 | 
UniProt O00584 |  | 1.21
GPHN (UniProt Q9NQX3) | -0.806 | 0.39
C18ORF8 (UniProt Q96DM3) | -1.03 | 0.0465
PHPT1 (UniProt Q9NRX4) | -0.929 | -0.335
BLOC1S3 (UniProt Q6QNY0) | -2.22 | 
UniProt P13637 |  | -0.357
RNF213 (UniProt Q63HN8) | -0.675 | -0.695
RABL6 (UniProt Q3YEC7) | -1.25 | -0.0473
UniProt A6PVI3 |  | 1.35
MBNL1 (UniProt Q9NR56) | -0.414 | -0.601
ZCCHC8 (UniProt Q6NZY4) | 0.865 | 0.545
DNAJA1 (UniProt P31689) | -0.0227 | 0.338
UniProt P20155 |  | -0.919
PAFAH1B2 (UniProt P68402) | 0.177 | 0.123
UniProt Q9UKR5 |  | -1.22
UniProt P60059 | 1.71 | 0.436
PSMC4 (UniProt P43686) | -0.42 | -1.24

Random excerpt: three entries already listed, in no set order.
Target | melting temperature shift [1] [°C] | melting temperature shift [2] [°C]
RFC3 (UniProt P40938) | -0.566 | -1.25
CHCHD2 (UniProt Q9Y6H1) | 0.477 | 0.0827
MBNL1 (UniProt Q9NR56) | -0.414 | -0.601

Additional records

Target | melting temperature shift [1] [°C] | melting temperature shift [2] [°C]
UBXN7 (UniProt O94888) | -0.524 | 0.378
VWA9 (UniProt Q96SY0) | -0.0135 | -0.614
ENAH (UniProt Q8N8S7) | -0.638 | -0.34
SCAMP4 (UniProt Q969E2) | -0.745 | 
CDK9 (UniProt P50750) | 0.151 | 1.17
BACH1 (UniProt O14867) | -0.396 | 
SPATA5 (UniProt Q8NB90) | 0.608 | -0.963
TIMMDC1 (UniProt Q9NPL8) | 0.491 | 
CMSS1 (UniProt Q9BQ75) | 1.56 | 
RANBP2 (UniProt P49792) | -0.542 | 1.13
UniProt Q96A08 | -0.107 | -1.67
MPDZ (UniProt O75970) | -1.54 | 0.683
C12ORF10 (UniProt Q9HB07) | -1.15 | 0.342
SEC11A (UniProt P67812) | 0.765 | -0.857
WDR11 (UniProt Q9BZH6) | -0.782 | 0.51
RIPK2 (UniProt O43353) | 1.1 | -0.583
ECH1 (UniProt Q13011) | 0.965 | -0.353
UBA5 (UniProt Q9GZZ9) | -0.698 | -1.24
H1F0 (UniProt P07305) |  | -0.757
ALDH6A1 (UniProt Q02252) | -2.76 | 1.74
IKBKG (UniProt Q9Y6K9) | -4.66 | 
UniProt Q96L14 |  | 1.27
NAE1 (UniProt Q13564) | -0.355 | -0.406

Target | melting temperature shift [1] [°C] | melting temperature shift [2] [°C]
RPA2 (UniProt P15927) | -0.718 | 0.594
EGLN1 (UniProt Q9GZT9) | 0.102 | -0.485
TP53BP2 (UniProt Q13625) | -1.12 | -2.23
CIAO1 (UniProt O76071) | -1.02 | -0.718
TMEM106B (UniProt Q9NUM4) | 2.8 | 2.55
NAV1 (UniProt Q8NEY1) | -0.528 | -0.615
AAAS (UniProt Q9NRG9) | 2 | 0.466
UniProt Q9H6U8 | 1.29 | 0.0302
UniProt O75509 | -0.547 | 
SNX5 (UniProt Q9Y5X3) | -0.101 | -1.99
CHTF18 (UniProt Q8WVB6) | -1.66 | 
ANO6 (UniProt Q4KMQ2) | 0.858 | -2.49
ABI1 (UniProt Q8IZP0) | -0.404 | 0.341
PTS (UniProt Q03393) | -0.959 | -1.95
NUDT12 (UniProt Q9BQG2) | -1.4 | -2.28
MRPL15 (UniProt Q9P015) | 0.834 | -1.16
UniProt Q9ULJ6 | -0.911 | -1.02
STAG1 (UniProt Q8WVM7) | 0.909 | -0.938
UniProt Q86UX7 | -1.18 | 
GALK2 (UniProt Q01415) | 0.195 | 
SLC1A5 (UniProt Q15758) | 4.36 | 
BCKDHB (UniProt P21953) | -0.362 | 

Many values rest on one well or one pass, so single values are uncertain.
